# Measurements reported in patent publication US11596648B2, “Emollient topical disinfectants” (priority 2016, dated 2023).
# Some of these results come from one statement about several compounds together.
# Experiment: Potassium iodide starch paper coloration versus time, vapor pressure of molecular iodine (Example 5)
# Details: cyclodextrin 50 mM, 0.1M acetate buffer pH 4.5
# Text: Alpha cyclodextrin (cat. number C4642, Sigma Life Sciences, Lot 2X SLBK4630V, CAS 10016-20-3), beta cyclodextrin (cat. number C4767, Sigma Life Sciences, Lot MKBV2085V, CAS 7585-39-9), gamma cyclodextrin (cat. number C4892, Sigma Life Sciences, Lot SLBL4156V, CAS 17465-86-0), methyl beta cyclodextri, (cat. number C4555, Sigma Life Sciences, Lot WXBC0745V, CAS 128446-36-6) and 2-hydroxypropyl-beta-cyclodextrin (cat. number H107, Sigma Life Sciences, Lot WXBC0083V, CAS 128446-35-5) were weighed into vials.
# Aliquots of saturated molecular iodine in either propylene glycol or 0.1M acetate buffer (pH 4.5) were added to the vials to yield a final cyclodextrin concentration of 50 mM. The samples were lightly vortexed to dissolve the cyclodextrins. Control vials were prepared consisting of saturated iodine in either propylene glycol or 0.1M acetate buffer pH 4.5.
# Analytical potassium iodide starch paper (Fluka #37215, Lot SZBF1310V) was cut into circle and placed inside the screw-top lid of the vials in a manner that held the paper in place once the lid was screwed onto the vial.
# Provided in FIGS. 2A-2L are pictures of the starch paper taken at different time points to document the color of the starch paper versus time of exposure to the atmosphere inside of the vial. […]
substance,measurement,value
methyl-β-cyclodextrin,reduction of the vapor pressure of molecular iodine,≥ 2 orders or magnitude
